PubChem BioAssay AID1053208 | Peter MacCallum Cancer Centre – 2014
Assay: 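Genes whose silencing cuts survival of bone tumour cells only with doxorubicin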 (primary screen). System: mouse osteosarcoma cells, early-passage culture from an engineered mouse model of fibroblastic bone tumour. Knock-down reagent: siRNA pool against mouse genes, 40 nM. Time to read-out: about 120 h (48 h before drug, then 72 h with drug). Challenge: doxorubicin 100 nM for 72 h, roughly 30-40% inhibitory dose. Measured: 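Viability read as ATP luminescence after 72 h of 100 nM doxorubicin or none, duplicate wells averaged, scaled to non-targeting siRNA, then expressed as robust z-scores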. Reading the numbers: viability z-score with doxorubicin and doxorubicin viability vs non-targeting: higher = more viable cells under doxorubicin; viability z-score without drug: higher = more viable cells with knock-down alone; z-score of drug to no-drug ratio: higher = less drug sensitisation by knock-down. Call rule: 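Called active if knock-down leaves viability unchanged without drug (z within -2 to 2) but lowers it with doxorubicin (z at or under -2)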.
Here is one part, drawn at random, of about 17,000 deposited reagents. Over the whole deposit, 788 (4.7%) are marked active. 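Calls rest on z-score classes alone; an extra cut-off of viability at most 70% of control was not applied to them.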 Entries without a mark were called inactive. The numbers tell different reagents against one gene apart.

The first 7 entries, ahead of the listing:
| Target gene | pool no. | combined z-score class | viability z-score with doxorubicin | viability z-score without drug | z-score of drug to no-drug ratio | doxorubicin viability vs non-targeting |
| --- | --- | --- | --- | --- | --- | --- |
| AI854703 | 1 | no change with or without drug | -0.45 | 0 | -0.34 | 0.9 |
| Or5h22 | 1 | no change with or without drug | 0.22 | -0.17 | 0.45 | 0.96 |
| Vps33b | 1 | no change with or without drug | -1.12 | 0.67 | -1.46 | 0.84 |
| Ctbp1 | 1 | no change with or without drug | 0.79 | -0.51 | 1.35 | 1.01 |
| Ms4a10 | 1 | no change with or without drug | -0.22 | 0.17 | -0.22 | 0.92 |
| Rhof | 1 | no change with or without drug | 0.11 | 0.17 | 0.11 | 0.95 |
| Trafd1 | 1 | no change with or without drug | -0.34 | 1.18 | -1.01 | 0.91 |

The list itself, from the start:
| Target gene | pool no. | combined z-score class | viability z-score with doxorubicin | viability z-score without drug | z-score of drug to no-drug ratio | doxorubicin viability vs non-targeting |
| --- | --- | --- | --- | --- | --- | --- |
| AI854703 | 1 | no change with or without drug | -0.45 | 0 | -0.34 | 0.9 |
| Or5h22 | 1 | no change with or without drug | 0.22 | -0.17 | 0.45 | 0.96 |
| Vps33b | 1 | no change with or without drug | -1.12 | 0.67 | -1.46 | 0.84 |
| Ctbp1 | 1 | no change with or without drug | 0.79 | -0.51 | 1.35 | 1.01 |
| Ms4a10 | 1 | no change with or without drug | -0.22 | 0.17 | -0.22 | 0.92 |
| Rhof | 1 | no change with or without drug | 0.11 | 0.17 | 0.11 | 0.95 |
| Trafd1 | 1 | no change with or without drug | -0.34 | 1.18 | -1.01 | 0.91 |
| Ctsw | 1 | no change with or without drug | 1.57 | -1.52 | 3.15 | 1.08 |
| Tmprss3 | 1 | no change with or without drug | -1.35 | -0.17 | -1.24 | 0.82 |
| Dram1 | 1 | no change with or without drug | -0.9 | -0.17 | -0.79 | 0.86 |
| Slc22a2 | 1 | no change with or without drug | -1.12 | 0.17 | -1.12 | 0.84 |
| Foxa1 | 1 | no change with or without drug | -1.12 | 1.18 | -1.8 | 0.84 |
| Ffar2 | 1 | no change with or without drug | -1.12 | 1.52 | -1.91 | 0.84 |
| Ipp | 1 | no change with or without drug | -0.22 | -1.01 | 0.56 | 0.92 |
| Cul1 | 1 | no change with or without drug | 0.79 | -0.17 | 1.01 | 1.01 |
| Alg12 | 1 | no change with or without drug | -0.45 | -1.01 | 0.34 | 0.9 |
| Srebf1 | 1 | no change with or without drug | 0.67 | -0.17 | 0.9 | 1 |
| Slc30a1 | 1 | no change with or without drug | -0.45 | -0.17 | -0.22 | 0.9 |
| V1rd18 | 1 | no change with or without drug | -1.35 | -1.85 | 0 | 0.82 |
| Eif4ebp2 | 1 | no change with or without drug | -1.35 | 1.52 | -2.14 | 0.82 |
| Acy1 | 1 | low cell count with doxorubicin only (active) | -2.47 | 0.67 | -2.81 | 0.72 |
| Slc41a2 | 1 | no change with or without drug | 0.22 | -0.84 | 1.01 | 0.96 |
| Gpx3 | 1 | no change with or without drug | 0.79 | -0.67 | 1.46 | 1.01 |
| Mtln | 1 | no change with or without drug | 0 | -0.34 | 0.34 | 0.94 |
| Btk | 1 | no change with or without drug | 0.11 | 1.18 | -0.56 | 0.95 |
| Lysmd4 | 1 | no change with or without drug | -0.11 | -0.51 | 0.34 | 0.93 |
| Trim27 | 1 | no change with or without drug | -1.35 | -0.51 | -1.01 | 0.82 |
| Fgf17 | 1 | no change with or without drug | 1.24 | 0.84 | 0.79 | 1.05 |
| Il4 | 1 | no change with or without drug | -1.12 | -1.18 | -0.34 | 0.84 |
| Tom1l2 | 1 | low cell count with doxorubicin only (active) | -2.47 | -0.84 | -2.02 | 0.72 |
| Ttc39a | 1 | no change with or without drug | -1.57 | -0.17 | -1.46 | 0.8 |
| Was | 1 | no change with or without drug | -0.67 | 0.51 | -0.9 | 0.88 |
| Ago3 | 1 | no change with or without drug | -0.22 | 0.51 | -0.45 | 0.92 |
| H2-DMb2 | 1 | no change with or without drug | -0.9 | -1.35 | 0.11 | 0.86 |
| Adat2 | 1 | no change with or without drug | -0.34 | 0.34 | -0.45 | 0.91 |
| Traf3 | 1 | no change with or without drug | -1.12 | 0 | -1.12 | 0.84 |
| Dnah1 | 1 | no change with or without drug | 0.22 | -0.51 | 0.67 | 0.96 |
| Dnah1 | 2 | no change with or without drug | -0.22 | 0.67 | -0.56 | 0.92 |
| Tfap4 | 1 | no change with or without drug | -0.45 | -0.84 | 0.22 | 0.9 |
| Rnase6 | 1 | no change with or without drug | -1.69 | 0 | -1.69 | 0.79 |
| Ift46 | 1 | no change with or without drug | 0.45 | -0.17 | 0.67 | 0.98 |
| Bmi1 | 1 | no change with or without drug | 0.67 | 0.17 | 0.67 | 1 |
| Aadac | 1 | no change with or without drug | -0.34 | -1.52 | 0.9 | 0.91 |
| Unc13b | 1 | no change with or without drug | 0.67 | 0.34 | 0.56 | 1 |
| Dram2 | 1 | no change with or without drug | 0 | 0 | 0.11 | 0.94 |
| Tmbim7 | 1 | no change with or without drug | 0.22 | -0.17 | 0.45 | 0.96 |
| Or10a3 | 1 | no change with or without drug | -1.01 | -0.84 | -0.45 | 0.85 |
| Ice2 | 1 | no change with or without drug | 1.35 | -0.17 | 1.69 | 1.06 |
| Prlr | 1 | no change with or without drug | 1.01 | 0.51 | 0.79 | 1.03 |
| Prlr | 2 | no change with or without drug | 0.45 | -0.17 | 0.67 | 0.98 |
| Slc50a1 | 1 | no change with or without drug | -0.22 | 0.84 | -0.67 | 0.92 |
| Vamp5 | 1 | no change with or without drug | 0.67 | -0.51 | 1.24 | 1 |
| Vamp5 | 2 | low cell count with doxorubicin only (active) | -2.02 | -1.01 | -1.46 | 0.76 |
| Or10d4b | 1 | no change with or without drug | -1.69 | -1.52 | -0.67 | 0.79 |
| Dock3 | 1 | no change with or without drug | 0.56 | -0.34 | 0.9 | 0.99 |
| Zbtb41 | 1 | no change with or without drug | -1.35 | -0.17 | -1.24 | 0.82 |
| Ttc23 | 1 | no change with or without drug | 1.69 | 1.01 | 1.12 | 1.09 |
| Plpp7 | 1 | no change with or without drug | -0.45 | -0.17 | -0.22 | 0.9 |
| Zfp781a | 1 | no change with or without drug | 1.46 | 0.84 | 1.01 | 1.07 |
| Nagpa | 1 | high cell count with and without drug | 2.25 | 3.2 | 0.22 | 1.14 |
| A330015D16RIK | 1 | no change with or without drug | 0.45 | 0.17 | 0.45 | 0.98 |
| Sh3pxd2a | 1 | no change with or without drug | -0.45 | 0 | -0.34 | 0.9 |
| Sh3pxd2a | 2 | no change with or without drug | 0.22 | -0.51 | 0.67 | 0.96 |
